Measurements reported in the M2OR odorant receptor database.
This is a selection; strong and weak results do not stand in their true shares. The calls were merged from several studies; some rest on single wells. This is one part of the list.

What was measured:
Details in all cases: stereoisomer not certain
OR8G5 = tested on: T1, OR8G5
T1 sequence (whole entry): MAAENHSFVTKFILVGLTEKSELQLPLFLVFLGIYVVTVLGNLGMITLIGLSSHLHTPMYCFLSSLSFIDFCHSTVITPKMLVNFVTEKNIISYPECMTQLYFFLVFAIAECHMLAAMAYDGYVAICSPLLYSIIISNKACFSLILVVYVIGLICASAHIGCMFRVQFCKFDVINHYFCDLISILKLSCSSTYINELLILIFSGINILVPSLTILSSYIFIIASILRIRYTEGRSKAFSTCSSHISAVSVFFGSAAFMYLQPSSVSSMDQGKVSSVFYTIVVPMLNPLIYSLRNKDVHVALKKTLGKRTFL
Method in brief: (§1)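 Each receptor–molecule pair is labelled responsive or non-responsive (inactive) according to whether the original authors judged the measured signal statistically different from baseline. The data were taken from the main text and supplementary material of published papers and checked for typos and inconsistencies. Assay methods differed by source, with transient luciferase assays in mammalian cell lines being common.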

OR8H1 (Homo sapiens) = biological target: T2, OR8H1 (Homo sapiens) (UniProt Q8NGG4)
T2 sequence (whole entry): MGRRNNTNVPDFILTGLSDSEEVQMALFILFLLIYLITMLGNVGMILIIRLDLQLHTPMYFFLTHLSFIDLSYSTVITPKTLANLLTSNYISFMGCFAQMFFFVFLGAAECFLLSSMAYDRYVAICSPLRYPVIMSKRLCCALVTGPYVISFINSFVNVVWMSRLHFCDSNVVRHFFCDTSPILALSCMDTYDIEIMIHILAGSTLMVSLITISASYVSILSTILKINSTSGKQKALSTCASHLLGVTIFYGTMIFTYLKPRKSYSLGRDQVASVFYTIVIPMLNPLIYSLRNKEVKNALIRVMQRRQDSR
Method in brief: as §1

OR8H2 = tested on: T3, OR8H2
T3 sequence (whole entry): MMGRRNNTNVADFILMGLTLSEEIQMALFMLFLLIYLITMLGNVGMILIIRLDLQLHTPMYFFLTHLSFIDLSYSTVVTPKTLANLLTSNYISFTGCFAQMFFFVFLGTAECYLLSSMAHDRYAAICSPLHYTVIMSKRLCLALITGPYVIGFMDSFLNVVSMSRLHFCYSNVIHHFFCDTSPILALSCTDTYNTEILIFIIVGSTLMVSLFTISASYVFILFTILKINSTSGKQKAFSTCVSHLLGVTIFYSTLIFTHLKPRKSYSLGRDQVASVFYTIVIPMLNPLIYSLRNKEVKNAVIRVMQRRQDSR
Method in brief: as §1

OR8H3 = tested on: T4, OR8H3
T4 sequence (whole entry): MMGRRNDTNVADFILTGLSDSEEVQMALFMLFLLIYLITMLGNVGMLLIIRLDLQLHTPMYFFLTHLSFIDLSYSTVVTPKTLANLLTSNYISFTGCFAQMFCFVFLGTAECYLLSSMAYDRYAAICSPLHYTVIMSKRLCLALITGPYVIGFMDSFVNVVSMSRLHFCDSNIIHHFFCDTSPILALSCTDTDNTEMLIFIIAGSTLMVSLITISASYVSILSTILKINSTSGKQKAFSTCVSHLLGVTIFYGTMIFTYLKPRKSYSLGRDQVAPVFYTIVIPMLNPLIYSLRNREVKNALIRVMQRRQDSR
Method in brief: as §1

OR8I2 = tested on: T5, OR8I2
T5 sequence (whole entry): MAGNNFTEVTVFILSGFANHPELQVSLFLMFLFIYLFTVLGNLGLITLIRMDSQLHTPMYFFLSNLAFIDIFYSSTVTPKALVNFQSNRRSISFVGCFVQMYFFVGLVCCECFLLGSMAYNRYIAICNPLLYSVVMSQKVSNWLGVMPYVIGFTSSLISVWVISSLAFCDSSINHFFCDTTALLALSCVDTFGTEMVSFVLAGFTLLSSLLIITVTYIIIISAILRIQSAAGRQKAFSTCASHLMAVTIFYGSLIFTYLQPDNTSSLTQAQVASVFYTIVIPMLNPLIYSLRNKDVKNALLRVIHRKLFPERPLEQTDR
Method in brief: as §1

OR8J1 = tested on: T6, OR8J1
T6 sequence (whole entry): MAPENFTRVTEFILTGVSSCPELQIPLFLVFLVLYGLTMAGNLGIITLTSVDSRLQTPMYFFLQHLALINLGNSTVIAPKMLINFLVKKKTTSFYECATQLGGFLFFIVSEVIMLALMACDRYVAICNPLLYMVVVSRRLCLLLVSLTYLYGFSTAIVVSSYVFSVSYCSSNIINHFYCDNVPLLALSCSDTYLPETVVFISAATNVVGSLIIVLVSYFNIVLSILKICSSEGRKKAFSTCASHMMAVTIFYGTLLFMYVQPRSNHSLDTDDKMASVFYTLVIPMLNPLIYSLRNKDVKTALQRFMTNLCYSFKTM
Method in brief: as §1

OR8J3 (Homo sapiens) = biological target: T7, OR8J3 (Homo sapiens) (UniProt Q8NGG0)
T7 sequence (whole entry): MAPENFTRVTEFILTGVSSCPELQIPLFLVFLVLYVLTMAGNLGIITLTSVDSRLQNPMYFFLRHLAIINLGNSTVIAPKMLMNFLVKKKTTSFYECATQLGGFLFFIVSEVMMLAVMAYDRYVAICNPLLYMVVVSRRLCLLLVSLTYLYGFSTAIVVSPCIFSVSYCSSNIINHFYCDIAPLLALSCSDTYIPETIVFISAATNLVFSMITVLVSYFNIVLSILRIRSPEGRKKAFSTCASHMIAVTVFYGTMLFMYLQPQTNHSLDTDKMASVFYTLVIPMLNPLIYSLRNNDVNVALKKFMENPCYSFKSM
Method in brief: as §1

OR8K1 (Homo sapiens) = biological target: T8, OR8K1 (Homo sapiens) (UniProt Q8NGG5)
T8 sequence (whole entry): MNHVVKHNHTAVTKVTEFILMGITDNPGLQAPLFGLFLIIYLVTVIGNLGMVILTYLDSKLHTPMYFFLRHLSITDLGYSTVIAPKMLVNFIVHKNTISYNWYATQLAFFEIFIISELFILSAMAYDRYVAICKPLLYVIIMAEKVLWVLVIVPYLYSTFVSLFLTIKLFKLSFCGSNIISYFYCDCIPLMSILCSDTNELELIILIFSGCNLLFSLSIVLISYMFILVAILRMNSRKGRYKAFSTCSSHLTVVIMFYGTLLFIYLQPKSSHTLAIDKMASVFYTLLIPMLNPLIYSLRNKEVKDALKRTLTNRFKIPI
Method in brief: as §1

OR8K3 = tested on: T9, OR8K3
T9 sequence (whole entry): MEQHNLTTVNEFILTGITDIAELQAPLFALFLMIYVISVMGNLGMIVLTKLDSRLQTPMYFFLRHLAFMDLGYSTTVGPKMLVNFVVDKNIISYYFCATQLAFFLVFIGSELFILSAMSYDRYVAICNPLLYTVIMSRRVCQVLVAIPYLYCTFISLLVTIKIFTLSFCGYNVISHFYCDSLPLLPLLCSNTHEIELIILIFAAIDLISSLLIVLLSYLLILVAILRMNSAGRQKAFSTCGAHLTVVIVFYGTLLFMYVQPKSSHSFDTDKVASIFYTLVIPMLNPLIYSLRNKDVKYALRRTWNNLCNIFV
Method in brief: as §1

OR8K5 = tested on: T10, OR8K5
T10 sequence (whole entry): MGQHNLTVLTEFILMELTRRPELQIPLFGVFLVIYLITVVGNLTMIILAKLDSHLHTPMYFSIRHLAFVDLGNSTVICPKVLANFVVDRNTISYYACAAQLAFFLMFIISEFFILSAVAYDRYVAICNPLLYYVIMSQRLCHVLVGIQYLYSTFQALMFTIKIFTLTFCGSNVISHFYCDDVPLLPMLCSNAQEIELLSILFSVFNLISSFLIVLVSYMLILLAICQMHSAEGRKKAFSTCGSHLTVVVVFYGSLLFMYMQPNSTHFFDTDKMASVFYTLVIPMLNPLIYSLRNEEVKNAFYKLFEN
Method in brief: as §1

Measured: odorant receptor agonist call;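 note: active if original authors judged signal statistically different from baseline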

CCC(C)=O
inactive: all assays above

CCCCOC(C)=O
inactive: all assays above

CS
inactive: all assays above
